Reference: paper PMC3685568
Results are given in words; binding and its absence hold for the method and conditions named. In cells and extracts the contact can be indirect. Some entries that bind do so weakly or less than the wild type.

Sequences of proteins named here, by UniProt entry; tags and fusion partners are left off.
UniProt P78560: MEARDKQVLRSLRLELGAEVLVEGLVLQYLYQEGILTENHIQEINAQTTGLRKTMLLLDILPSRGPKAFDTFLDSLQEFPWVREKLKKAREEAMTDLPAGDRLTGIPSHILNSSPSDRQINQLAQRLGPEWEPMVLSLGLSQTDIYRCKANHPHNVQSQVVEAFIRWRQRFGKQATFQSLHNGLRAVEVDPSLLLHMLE

What was measured:
[1] = target: RAIDD protein (human (endogenous in SK-BR-3 and MCF-7)) (UniProt P78560); assay: co-IP; endogenous RAIDD precipitated with anti-RAIDD antibody on protein A/G agarose beads from MCF-7 lysate (1% NP-40, 20 mM TRIS pH 7.4, 1 mM EDTA, 5% glycerol, 250 mM NaCl; 300 ug of cell proteins, overnight); cells incubated 24 h with 300 nM paclitaxel; western blot
[2] = target: RAIDD protein (human (endogenous in SK-BR-3 and MCF-7)) (UniProt P78560); assay: co-IP; endogenous RAIDD precipitated with anti-RAIDD antibody on protein A/G agarose beads from SK-BR-3 lysate (1% NP-40, 20 mM TRIS pH 7.4, 1 mM EDTA, 5% glycerol, 250 mM NaCl; 300 ug of cell proteins, overnight); cells incubated 24 h with 100 nM paclitaxel; western blot

- binding [1]: binds
- binding [2]: binds
B1: PIDD protein (protein, UniProt Q9HB75 1-910)
chain: MAATVEGPELEAAAAAGDASEDSDAGSRALPFLGGNRLSLDLYPGGCQQLLHLCVQQPLQLLQVEFLRLSTHEDPQLLEATLAQLPQSLSCLRSLVLKGGQRRDTLGACLRGALTNLPAGLSGLAHLAHLDLSFNSLETLPACVLQMRGLGALLLSHNCLSELPEALGALPALTFLTVTHNRLQTLPPALGALSTLQRLDLSQNLLDTLPPEIGGLGSLLELNLASNRLQSLPASLAGLRSLRLLVLHSNLLASVPADLARLPLLTRLDLRDNQLRDLPPELLDAPFVRLQGNPLGEASPDAPSSPVAALIPEMPRLFLTSDLDSFPVTPQGCSVTLACGVRLQFPAGATATPITIRYRLLLPEPGLVPLGPHDALLSHVLELQPHGVAFQQDVGLWLLFTPPQARRCREVVVRTRNDNSWGDLETYLEEEAPQRLWAHCQVPHFSWFLVVSRPVSNACLVPPEGTLLCSSGHPGVKVIFPPGATEEPRRVSMQVVRMAGRELQALLGEPEAAVSPLLCLSQSGPPSFLQPVTVQLPLPSGITGLSLDRSRLHLLYWAPPAATWDDITAQVVLELTHLYARFQVTHFSWYWLWYTTKNCVGGLARKAWERLRLHRVNLIALQRRRDPEQVLLQCLPRNKVDATLRRLLERYRGPEPSDTVEMFEGEEFFAAFERGIDVDADRPDCVEGRICFVFYSHLKNVKEVYVTTTLDREAQAVRGQVSFYRGAVPVRVPEEAEAARQRKGADALWMATLPIKLPRLRGSEGPRRGAGLSLAPLNLGDAETGFLTQSNLLSVAGRLGLDWPAVALHLGVSYREVQRIRHEFRDDLDEQIRHMLFSWAERQAGQPGAVGLLVQALEQSDRQDVAEEVRAVLELGRRKYQDSIRRMGLAPKDPALPGSSAPQPPEPAQA
